Measured values from US5871937A, “Acute phase protein modulating endotoxic activity of lipopolysaccharides, assay methods and polypeptides” (priority 1997, dated 1999).

B1: BPI: bactericidal/permeability increasing protein, a product of neutrophils (protein, UniProt P17213 32-487, looked up)
Bactericidal …: VNPGVVVRISQKGLDYASQQGTAALQKELKRIKIPDYSDSFKIKHLGKGHYSFYSMDIREFQLPSSQISMVPNVGLKFSISNANIKISGKWKAQKRFLKMSGNFDLSIEGMSISADLKLGSNPTSGKPTITCSSCSSHINSVHVHISKSKVGWLIQLFHKKIESALRNKMNSQVCEKVTNSVSSELQPYFQTLPVMTKIDSVAGINYGLVAPPATTAETLDVQMKGEFYSENHHNPPPFAPPVMEFPAAHDRMVYLGLSDYFFNTAGLVYQEAGVLKMTLRDDMIPKESKFRLTTKFFGTFLPEVAKKFPNMKIQIHVSASTPPHLSVQPTGLTFYPAVDVQAFAVLPNSSLASLFLIGMHTTGSMEVSAESNRLVGELKLDRLLLELKHSNIGPFPVELLQDIMNYIVPILVLPRVNEKLQKGFPLPTPARVQLYNVVLQPHQNFLLFGADVVYK
B2: LBP: acute phase glycoprotein of about 60 kD that binds LPS and retards its binding to HDL (protein, UniProt P17454 27-482, looked up)
Lipopolysaccharide-binding …: TNPGLITRITDKGLEYAAREGLLALQRKLLEVTLPDSDGDFRIKHFGRAQYKFYSLKIPRFELLRGTLRPLPGQGLSLDISDAYIHVRGSWKVRKAFLRLKNSFDLYVKGLTISVHLVLGSESSGRPTVTTSSCSSDIQNVELDIEGDLEELLNLLQSQIDARLREVLESKICRQIEEAVTAHLQPYLQTLPVTTQIDSFAGIDYSLMEAPRATAGMLDVMFKGEIFPLDHRSPVDFLAPAMNLPEAHSRMVYFSISDYVFNTASLAYHKSGYWNFSITDAMVPADLNIRRTTKSFRPFVPLLANLYPNMNLELQGTVNSEQLVNLSTENLLEEPEMDIEALVVLPSSAREPVFRLGVATNVSATLTLNTRKITGFLKPGRLQVELKESKVGGFNVELLEALLNYYILNNLYPKVNEKLAHRFPLPLLRHIQLYDLLLQTHENFLLVGANIQYRRV

Experiment: CsCl centrifugation density of LPS complexes
Type: binding
Settings: for Density reached, shift from 1.33 g/cc: combining LPS, HDL and the protein

Molecule	Density reached, shift from 1.33 g/cc	Density of LBP-LPS complex (purified glycoprotein and LPS admixed in vitro in normal serum)
B1	1.29 g/cc	
B2	less than 1.2 g/cc	1.3 g/cc
